Data published in patent US20230102129A1.
No constants are given. Whether binding was seen depends on the method and setting. Binding calls can cover weak binding; strength is not graded here.

Biological target: sSema4D protein (Mus musculus (Mouse))
Test: CD spectroscopy of 20 uM nanoparticles before and after addition of sSema4D

binding: binds
Binder: FFVLKKQKRPRH (X = C16 carbon chain (X being C16), as for FG; position shown only in a drawing) [nano small peptide FH]
